# Source: the supplement of paper PMC9454738
# Counter-ions that a name gives are not always drawn. ± gives the standard deviation of the averaged measurements. This is one part of the list. This data set is noisy: repeats of one test often differ as much as different tests do.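 Triple-negative MDA-MB-231 breast cancer cells and their brain-metastatic MDA-MB-231BRM derivative each stably expressed empty vector, full-length GLI1 or truncated tGLI1. CellTiter-Blue measured viability at 48 h relative to 1% DMSO vehicle. Compounds reducing viability 20% more in tGLI1 cells than in vector and GLI1 cells counted as tGLI1-selective.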
# System: MDA-MB-231BRM tGLI1
# Assay: cell viability relative to vehicle (DMSO) control (fraction); higher = more viable cells (less growth inhibition)
# Details: 0.05 µM; treatment time 48 h
row,Structure (SMILES),cell viability
1,C[C@H]1[C@H](C)CC[C@]2(C(=O)O)CC[C@]3(C)C(=CC[C@@H]4[C@@]5(C)C[C@@H](O)[C@H](O)[C@@](C)(CO)[C@@H]5CC[C@]43C)[C@H]12 [Asiatic Acid],1.1
2,O=C1NC(=O)C(c2ccccc2[N+](=O)[O-])=C1Nc1ccc(O)c(Cl)c1,1.03
3,Cc1c(Cn2c(C)nc3c(C(=O)O)cc(N4CCOCC4)cc32)cccc1C(F)(F)F,0.803
4,Cc1ccc(NC(=O)c2ccc(CN3CCN(C)CC3)cc2)cc1Nc1nccc(-c2cccnc2)n1 [Imatinib (STI571)],1.02
5,CCC(=O)NCC[C@@H]1CCc2ccc3c(c21)CCO3 [Ramelteon (TAK-375)],1.08
6,NC(=O)Nc1cc(-c2cccc(F)c2)sc1C(=O)N[C@H]1CCCNC1,0.705
7,COc1cc2ncnc(Oc3ccc(CC(=O)Nc4cnn(C(C)C)c4)cc3)c2cc1OC,0.993
8,CC(C)(C)NS(=O)(=O)c1cncc(-c2cc(F)c3nc(N)nn3c2)c1,1.03
9,O=C(Nc1cc(C(F)(F)F)cc(C(F)(F)F)c1)c1cc(Cl)ccc1O,1.01
10,CN1CCC(COc2cnc(-c3cccc(Cn4nc(-c5cccc(C#N)c5)ccc4=O)c3)nc2)CC1,0.982
11,CC(C)CC(=O)Nc1n[nH]c2c1CN(C(=O)C1CCN(C)CC1)C2(C)C,1.1
12,COc1cc2ncc(-c3ccccc3)nc2cc1OC [Tyrphostin AG 1296],0.592
13,C1=N/C2=N/c3ccc(OCCN4CCCC4)c(c3)COC/C=C/COCc3cccc(c3)C(=C1)N2 [Pacritinib (SB1518)],0.614
14,O=C(NCCO)c1cccc(-c2cc(Nc3ccc(OC(F)(F)F)cc3)ncn2)c1,1.24
15,N#CC(=C(/N)Sc1ccccc1N)/C(C#N)=C(\N)Sc1ccccc1N,0.931
16,CN(C)Cc1cccc(N/C(=C2\C(=O)Nc3cc(C(N)=O)ccc32)c2ccccc2)c1,0.581
17,C[C@@H](CN1CC(=O)NC(=O)C1)N1CC(=O)NC(=O)C1 [Dexrazoxane Hydrochloride],1.08
18,COc1ccc(-c2ccc3ncc4c(c3c2)n(-c2ccc(N3CCNCC3)c(C(F)(F)F)c2)c(=O)n4C)cn1,0.953
19,CC(C)(C)c1cnc(CSc2cnc(NC(=O)C3CCNCC3)s2)o1,0.96
20,Cc1c(F)cc(C(=O)NC2CC2)cc1-c1ccc(C(=O)NCC(C)(C)C)cn1,0.964

row,Structure (SMILES),cell viability
1,CCCC1O[C@@H]2C[C@H]3[C@@H]4CCC5=CC(=O)C=C[C@]5(C)[C@H]4[C@@H](O)C[C@]3(C)[C@]2(C(=O)CO)O1 (stereo partly drawn) [Budesonide],1.05
2,C[C@@H](Oc1cc(-c2cnn(C3CCNCC3)c2)cnc1N)c1c(Cl)ccc(F)c1Cl,0.989 ± 0.14
3,O=C1NC(=O)/C(=C/c2ccc3nccc(-c4ccncc4)c3c2)S1,0.559
4,Cc1ccc2nc(NCCN)c3ncc(C)n3c2c1,0.942
5,CC(=O)[C@]1(O)Cc2c(O)c3c(c(O)c2[C@@H](O[C@H]2C[C@H](N)[C@H](O)[C@H](C)O2)C1)C(=O)c1ccccc1C3=O [Idarubicin HCl],0.202
6,NC1(c2ccc(-c3nc4ccn5c(=O)[nH]nc5c4cc3-c3ccccc3)cc2)CCC1,0.995
7,O=C1NC(=O)/C(=C/c2ccc(-c3ccc(F)cc3O)o2)S1,1.06
8,CN(C)CCOc1ccc(-c2nc(-c3ccncc3)c(-c3ccc4c(c3)CC/C4=N\O)[nH]2)cc1,1.06
9,O=C1NC(=O)/C(=C/c2cccc(C(F)(F)F)c2)S1,1.12
10,C=CC(=O)Nc1ccc2ncnc(Nc3cccc(Br)c3)c2c1,0.953
11,"COc1cc(F)c(F)c(Nc2ccc(I)cc2F)c1NS(=O)(=O)C1(C[C@H](O)CO)CC1 [Refametinib (RDEA119, Bay 86-9766)]",0.956
12,Cc1cc(CN2CCN(c3c(Br)cnc4nc(-c5ccc(N6CCN(C)CC6)cc5)[nH]c34)CC2)no1,1.04
13,Cc1cc(F)c(Nc2ncnc3cc(OCc4ccccc4)ccc23)cc1O,1.05
14,CN1CCC(CNc2ccc3ncc(-c4cccc(OC(F)(F)F)c4)n3n2)CC1 [SGI-1776 free base],0.596
15,COc1cc(OC)c(/C=C/S(=O)(=O)Cc2ccc(OC)c(NCC(=O)O)c2)c(OC)c1,1.01
16,COc1ncc(-c2ccc3nccc(-c4ccnnc4)c3c2)cc1NS(=O)(=O)c1ccc(F)cc1F,0.99
17,S=C(NCc1ccc2c(c1)OCO2)N1CCN(c2ncnc3c2oc2ccccc23)CC1 [Amuvatinib (MP-470)],1.05
18,OCCn1cc(-c2cnc3nnn(Cc4ccc5ncccc5c4)c3n2)cn1,0.726
19,Cc1c(NC(=O)c2ccc(C(C)(C)C)cc2)cccc1-c1cn(C)c(=O)c(Nc2ccc(C(=O)N3CCOCC3)cc2)n1,1.02

# Same assay, conditions: 0.5 µM; treatment time 48 h
row,Structure (SMILES),cell viability
1,C[C@H]1[C@H](C)CC[C@]2(C(=O)O)CC[C@]3(C)C(=CC[C@@H]4[C@@]5(C)C[C@@H](O)[C@H](O)[C@@](C)(CO)[C@@H]5CC[C@]43C)[C@H]12 [Asiatic Acid],1
2,O=C1NC(=O)C(c2ccccc2[N+](=O)[O-])=C1Nc1ccc(O)c(Cl)c1,1.05
3,Cc1c(Cn2c(C)nc3c(C(=O)O)cc(N4CCOCC4)cc32)cccc1C(F)(F)F,0.704
4,Cc1ccc(NC(=O)c2ccc(CN3CCN(C)CC3)cc2)cc1Nc1nccc(-c2cccnc2)n1 [Imatinib (STI571)],0.998
5,CCC(=O)NCC[C@@H]1CCc2ccc3c(c21)CCO3 [Ramelteon (TAK-375)],1.01
6,NC(=O)Nc1cc(-c2cccc(F)c2)sc1C(=O)N[C@H]1CCCNC1,1.16
7,COc1cc2ncnc(Oc3ccc(CC(=O)Nc4cnn(C(C)C)c4)cc3)c2cc1OC,1.04
8,CC(C)(C)NS(=O)(=O)c1cncc(-c2cc(F)c3nc(N)nn3c2)c1,0.993
9,O=C(Nc1cc(C(F)(F)F)cc(C(F)(F)F)c1)c1cc(Cl)ccc1O,1.04
10,CN1CCC(COc2cnc(-c3cccc(Cn4nc(-c5cccc(C#N)c5)ccc4=O)c3)nc2)CC1,1.02
11,CC(C)CC(=O)Nc1n[nH]c2c1CN(C(=O)C1CCN(C)CC1)C2(C)C,0.618
12,COc1cc2ncc(-c3ccccc3)nc2cc1OC [Tyrphostin AG 1296],0.58
13,C1=N/C2=N/c3ccc(OCCN4CCCC4)c(c3)COC/C=C/COCc3cccc(c3)C(=C1)N2 [Pacritinib (SB1518)],0.533
14,O=C(NCCO)c1cccc(-c2cc(Nc3ccc(OC(F)(F)F)cc3)ncn2)c1,1.17
15,N#CC(=C(/N)Sc1ccccc1N)/C(C#N)=C(\N)Sc1ccccc1N,0.966
16,CN(C)Cc1cccc(N/C(=C2\C(=O)Nc3cc(C(N)=O)ccc32)c2ccccc2)c1,1.12
17,C[C@@H](CN1CC(=O)NC(=O)C1)N1CC(=O)NC(=O)C1 [Dexrazoxane Hydrochloride],1.03
18,COc1ccc(-c2ccc3ncc4c(c3c2)n(-c2ccc(N3CCNCC3)c(C(F)(F)F)c2)c(=O)n4C)cn1,1.01
19,CC(C)(C)c1cnc(CSc2cnc(NC(=O)C3CCNCC3)s2)o1,0.947
20,Cc1c(F)cc(C(=O)NC2CC2)cc1-c1ccc(C(=O)NCC(C)(C)C)cn1,0.984

row,Structure (SMILES),cell viability
1,CCCC1O[C@@H]2C[C@H]3[C@@H]4CCC5=CC(=O)C=C[C@]5(C)[C@H]4[C@@H](O)C[C@]3(C)[C@]2(C(=O)CO)O1 (stereo partly drawn) [Budesonide],1.05
2,C[C@@H](Oc1cc(-c2cnn(C3CCNCC3)c2)cnc1N)c1c(Cl)ccc(F)c1Cl,0.971 ± 0.037
3,O=C1NC(=O)/C(=C/c2ccc3nccc(-c4ccncc4)c3c2)S1,1.08
4,Cc1ccc2nc(NCCN)c3ncc(C)n3c2c1,1.16
5,CC(=O)[C@]1(O)Cc2c(O)c3c(c(O)c2[C@@H](O[C@H]2C[C@H](N)[C@H](O)[C@H](C)O2)C1)C(=O)c1ccccc1C3=O [Idarubicin HCl],-0.0378
6,NC1(c2ccc(-c3nc4ccn5c(=O)[nH]nc5c4cc3-c3ccccc3)cc2)CCC1,0.933
7,O=C1NC(=O)/C(=C/c2ccc(-c3ccc(F)cc3O)o2)S1,1.1
8,CN(C)CCOc1ccc(-c2nc(-c3ccncc3)c(-c3ccc4c(c3)CC/C4=N\O)[nH]2)cc1,0.761
9,O=C1NC(=O)/C(=C/c2cccc(C(F)(F)F)c2)S1,1
10,C=CC(=O)Nc1ccc2ncnc(Nc3cccc(Br)c3)c2c1,0.926
11,"COc1cc(F)c(F)c(Nc2ccc(I)cc2F)c1NS(=O)(=O)C1(C[C@H](O)CO)CC1 [Refametinib (RDEA119, Bay 86-9766)]",1.01
12,Cc1cc(CN2CCN(c3c(Br)cnc4nc(-c5ccc(N6CCN(C)CC6)cc5)[nH]c34)CC2)no1,1.05
13,Cc1cc(F)c(Nc2ncnc3cc(OCc4ccccc4)ccc23)cc1O,0.96
14,CN1CCC(CNc2ccc3ncc(-c4cccc(OC(F)(F)F)c4)n3n2)CC1 [SGI-1776 free base],1.02
15,COc1cc(OC)c(/C=C/S(=O)(=O)Cc2ccc(OC)c(NCC(=O)O)c2)c(OC)c1,1.24
16,COc1ncc(-c2ccc3nccc(-c4ccnnc4)c3c2)cc1NS(=O)(=O)c1ccc(F)cc1F,0.952
17,S=C(NCc1ccc2c(c1)OCO2)N1CCN(c2ncnc3c2oc2ccccc23)CC1 [Amuvatinib (MP-470)],1.17
18,OCCn1cc(-c2cnc3nnn(Cc4ccc5ncccc5c4)c3n2)cn1,0.946
19,Cc1c(NC(=O)c2ccc(C(C)(C)C)cc2)cccc1-c1cn(C)c(=O)c(Nc2ccc(C(=O)N3CCOCC3)cc2)n1,0.981
